Data from the primary screen of doi:10.1371/journal.pone.0140310, rounded.

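Human melanoma cells were exposed to two drugs together for 72 h in 1,536-well plates and read by automated microscopy after fixing and staining. Each value is the count of nuclei relative to DMSO-treated wells, in %, so that 100 equals the control. Concentrations were fixed for each drug; these are the lower of two levels, a fifth of the higher. No replicate spread is given; individual values may be noisy.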
An unselected part of the screen is shown.
A dash means that no value is listed here.

Compounds and concentrations:
fingolimod, 2 µM: CCCCCCCCc1ccc(CCC(N)(CO)CO)cc1
gemcitabine, 0.0004 µM: Nc1ccn([C@@H]2O[C@H](CO)[C@@H](O)C2(F)F)c(=O)n1
PF-562271, 0.08 µM: CN(c1ncccc1CNc1nc(Nc2ccc3c(c2)CC(=O)N3)ncc1C(F)(F)F)S(C)(=O)=O
etoposide, 0.02 µM: COc1cc([C@@H]2c3cc4c(cc3[C@@H](O[C@@H]3O[C@@H]5CO[C@@H](C)O[C@H]5[C@H](O)[C@H]3O)[C@H]3COC(=O)[C@H]23)OCO4)cc(OC)c1O
decitabine, 0.1 µM: Nc1ncn([C@H]2C[C@H](O)[C@@H](CO)O2)c(=O)n1
T0901317, 1.4 µM: O=S(=O)(c1ccccc1)N(CC(F)(F)F)c1ccc(C(O)(C(F)(F)F)C(F)(F)F)cc1
GSK650394, 0.16 µM: O=C(O)c1ccc(-c2c[nH]c3ncc(-c4ccccc4)cc23)cc1C1CCCC1
vorinostat, 0.08 µM: O=C(CCCCCCC(=O)Nc1ccccc1)NO

Pair | COLO 792 | A2058 | MEL-HO | G-361 | A101D
PF-562271 + etoposide | 83.7 | - | - | - | -
GSK650394 + gemcitabine | 99.5 | 93.7 | 81.4 | 100 | 90.1
decitabine + T0901317 | 92.0 | - | - | - | -
vorinostat + fingolimod | - | 86.1 | - | - | 113